Patent US20030113810A1, “Novel assay” (priority 2000, published 2003)
Some of these results come from one statement about several compounds together. At least one compound was matched to its structure with a doubt left.

Test system: rat primary adipocytes
Test: Adipocyte lipolysis assay (glycerol), isoprenaline-stimulated
Type: cell-based
Conditions: freshly isolated rat epididymal adipocytes, isoprenaline 100 nM, 2 hours, FIG. 10

SMILES: CCCC(=O)O [n-Butyrate]
- inhibition of isoprenaline-stimulated lipolysis: significant inhibition of isoprenaline-stimulated lipolysis in a concentration-dependent manner
